Measurements: patent US4743594A, “Antibiotic, antitumor compounds and their use” (priority 1984, dated 1988)
The name of at least one read-out is uncertain.

System: Actinomadura melliaura ATCC 39691
Test: Growth of the producing strain in the presence of antibiotics
Assay type: cell-based

Row | Compound | Growth in the presence of 50 mcg/mL of antibiotic
1 | CN[C@@H]1[C@@H](O)[C@@H](O[C@@H]2[C@@H](O)[C@H](O[C@H]3OC(CN)=CC[C@H]3N)[C@@H](N)C[C@H]2N)OC[C@]1(C)O [Sisomicin] | +
2 | NC[C@H]1O[C@H](O[C@H]2[C@H](O)[C@@H](O[C@H]3O[C@H](CO)[C@@H](O)[C@H](N)[C@H]3O)[C@H](N)C[C@@H]2N)[C@H](O)[C@@H](O)[C@@H]1O [Kanamycin] | +
